The nature of this test: qHTS Assay for Lipid Storage Modulators in Drosophila S3 Cells.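 As to cell number change: cells counted by Cell Tracker Red CMTPX staining in the red channel.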 The settings on record: BODIPY lipid droplet fluorescence, 18-24 h; for cell number change: measured here: cell count max response, cells fed with added oleic acid. In short, it runs like this: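 Drosophila S3 cells loaded with oleic acid (400 uM, as added) and compounds at several concentrations; lipid droplets imaged by 488-nm laser-scanning cytometry, 500–530 nm intensity and object ratio to cell channel. Percent activity normalized to 20 uM Triacsin C.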

Where [1] appears, read: measured here: cell number channel AC50, cells fed with added oleic acid.
Where [2] appears, read: measured here: lipid fluorescence (Fed channel) AC50, cells fed with added oleic acid.

The list shows a part of the results. Further columns of the screen follow, without active or inactive calls. Most of these compounds were active or inconclusive in the main read-out, so they are no random draw. Potencies come from curve fits of mixed quality, noted in brackets.

The AC50 is the concentration at which the activity in the assay is half-maximal.

As for `c1ccc(-n2ncc3c(NCCCN4CCOCC4)ncnc32)cc1`, the cell number change was -3.96%. Under setting [1], the AC50 is 6.51 µM [falling, single point]. In the case of `CC(C)CNC(=O)CC(c1ccccc1)c1ccccc1`, the cell number change was -40.8%. Moreover, the AC50 under setting [1] is 29.1 µM [falling, single point]. `COC(=O)C1=C(C(=O)OC)SC(=C2C(=S)C(C)(C)N(C(=O)C(C)C)c3ccccc32)S1`: the cell number change was -87.8%. Also, the AC50 under setting [1] was 5.17 µM [falling, full curve]. Moreover, the AC50 under setting [2] is 18.4 µM [falling, single point].

Take `ON/C=N/C(=S)Nc1ncc(C(F)(F)F)cc1Cl`: the cell number change is -10.6%. Also, the AC50 under setting [1] is 2.31 µM [falling, partial curve, poor fit]. In the case of `O=C(N/N=C/c1cccc(OCc2ccccc2)c1)c1ccc(Br)o1`, the cell number change is -16.8%. The AC50 under setting [2] was 6.51 µM [falling, single point]. In the case of `CC(=O)c1ccc(NC(=O)CSc2ccsc2[N+](=O)[O-])cc1`, the cell number change was determined as 47.6%. Moreover, the AC50 under setting [1] was 18.4 µM [rising, single point]. Moreover, under setting [2], the AC50 was 20.6 µM [rising, single point].

For `Cc1cc(C)c(C(=O)/C=C/C=C/c2ccccc2)c(=O)[nH]1`, the cell number change was -31.6%. Under setting [1], the AC50 was 25.9 µM [falling, single point]. For the compound `Cc1ccc(C(=O)OCC(=O)Nc2cc(C(C)(C)C)nn2-c2ccccc2)c(O)c1`, the cell number change is -50.9%. Besides, the AC50 under setting [1] was 25.9 µM [falling, single point]. The AC50 under setting [2] is 29.1 µM [falling, single point]. Regarding `Cc1ccc(OCCC(=O)NNC(=O)c2ccccc2F)cc1`, the cell number change was found to be 16.6%. The half-maximal activity concentration (AC50) under setting [2] was 5.8 µM [rising, full curve, poor fit]. For the compound `COc1cc(OC)cc(C(=O)Nn2cc(C(=O)N3CCN(C)CC3)c3ccccc3c2=O)c1`, the cell number change is -14.4%. For the compound `O=C(CCCSc1nc2ccccc2c(=O)[nH]1)c1ccc(F)cc1`, the cell number change was 20.3%. As to `CC(C)(C)c1cc(NC(=O)Nc2ccccc2OC(F)(F)F)no1`, the cell number change was -31.8%. The AC50 under setting [1] was 10.3 µM [falling, partial curve]. Besides, under setting [2], the AC50 is 13 µM [falling, partial curve, poor fit].

Turning to `COc1ccc(N2CCN(C(=O)CCNS(=O)(=O)c3ccc(Br)s3)CC2)cc1`, the AC50 is, setting by setting: under setting [1], 3.26 µM [rising, single point]; under setting [2], 2.91 µM [rising, partial curve]. Consider `O=C(CSc1nc2ccccc2o1)N1CCCC1`, for which the concentration at half-maximal activity (AC50) under setting [1] is 0.92 µM [rising, partial curve, poor fit] and the AC50 under setting [2] is 6.51 µM [rising, partial curve, poor fit]. On to `CC(=O)c1ccc(S(=O)(=O)N(C)CCCC(=O)N(C)Cc2c(F)cccc2Cl)cc1`, for which the cell number change turned out to be 1.28%. For the same compound, the AC50 under setting [2] was 20.6 µM [falling, partial curve].

Turning to `CC(=O)NCCn1c(SCc2cc(=O)n3cc(Cl)ccc3n2)nc2ccccc2c1=O`, the cell number change amounted to 0.903%. Regarding `CCOC(=O)C1=C(CC)Nc2ccccc2N=C1NC(=O)c1ccc(S(=O)(=O)N(C)C)cc1`, the cell number change came out at 49.5%. Also, the AC50 under setting [1] was 1.84 µM [rising, full curve].

For the compound `CSCCC(NC(=O)c1ccccc1Br)C(=O)NNC(=O)c1csc(N2CCOCC2)n1` (stereo not drawn), the cell number change worked out at 0.109%. Moreover, the concentration at half-maximal activity (AC50) under setting [2] was 0.411 µM [falling, single point]. Turning to `O=C(CNC(=O)c1ccc(Br)o1)NNC(=O)c1cccc(Cl)c1`, the cell number change was 20.3%. With `CS(=O)(=O)c1ccc2nc(NC(=O)c3cccs3)sc2c1`, the AC50 under setting [2] was 1.3 µM [falling, full curve]. With `NC(=O)C1CCN(C2CC(=O)N(c3cccc(F)c3)C2=O)CC1` (stereo not drawn), the cell number change was -27.1%. For the same compound, the AC50 under setting [1] is 0.0291 µM [falling, full curve, poor fit]. Besides, under setting [2], the AC50 is 0.00461 µM [falling, full curve, poor fit]. Consider `CCN(CC)S(=O)(=O)c1ccc(C)c(NC(=O)/C=C/c2cccs2)c1`, for which the cell number change was -33.3%. Moreover, under setting [1], the concentration at half-maximal activity (AC50) was 0.326 µM [falling, full curve, poor fit].

In the case of `COc1ccc(C(=O)NCc2cn3cccc(C)c3n2)cc1OC`, the cell number change was determined as 33.1%. In addition, the AC50 under setting [1] is 5.17 µM [rising, single point]. Under setting [2], the AC50 was 3.66 µM [rising, partial curve, poor fit]. For the compound `O=C1CSC(=S)N1c1cccnc1`, the cell number change was found to be 12.7%. The half-maximal activity concentration (AC50) under setting [2] is 0.00517 µM [falling, full curve, poor fit]. Take `COc1ccc(CCNC(=O)Cn2nnc(-c3ccccc3F)n2)cc1OC`: the cell number change was -44.9%. Besides, under setting [1], the AC50 was 11.6 µM [falling, partial curve]. Further, under setting [2], the AC50 was 11.6 µM [falling, partial curve]. Take `C/C(=C1/SC(N2CCOCC2)=NC1=O)c1ccc(Br)cc1`: the cell number change is -15%. Further, the AC50 under setting [2] was 32.6 µM [falling, single point]. As to `C=CCn1c(=O)c2c(nc3n2CC(C)CN3CCc2ccccc2)n(C)c1=O` (stereo not drawn), the cell number change amounted to 1.49%. Consider `Clc1ccccc1OCCN1CCCCC1`, for which the cell number change is -47.4%. Under setting [1], the AC50 is 23.1 µM [falling, single point]. Moreover, the AC50 under setting [2] is 29.1 µM [falling, single point]. For the compound `C=CCc1ccc(O)c(-c2ccc(O)c(CC=C)c2)c1`, the cell number change was -47.4%. For the same compound, the AC50 under setting [1] is 18.4 µM [falling, single point]. Also, the AC50 under setting [2] was 18.4 µM [falling, single point].

For the compound `COc1cc([C@@H]2c3cc4c(cc3[C@H](O)[C@H]3COC(=O)[C@H]23)OCO4)cc(OC)c1OC`, the cell number change is -15.4%. For the same compound, the half-maximal activity concentration (AC50) under setting [2] is 2.06 µM [falling, single point].

For the compound `O=c1nc(/C=C/c2ccccc2C(F)(F)F)cc(C(F)(F)F)[nH]1`, under setting [2], the AC50 is 0.366 µM [falling, full curve]. With `O=C(COC(=O)CCSc1ccccc1Cl)NCc1ccco1`, the cell number change was -33.9%. `C=CCNC(=S)NNC(=O)c1ccc(Br)o1`: the cell number change was -25.2%. In addition, the AC50 under setting [2] was 4.61 µM [rising, partial curve]. Turning to `O=C(Nc1nc(-c2ccco2)cs1)c1ccccc1`, the cell number change was found to be 15%. Turning to `O=C(/C=C/c1ccccc1)N/C(=C\c1ccco1)C(=O)O`, the cell number change is -19.1%. Also, the AC50 under setting [2] is 5.17 µM [falling, full curve]. Take `O=C(CS(=O)(=O)c1cn(Cc2ccc(Cl)cc2)c2ccccc12)N1CCOCC1`: the cell number change was determined as 11.2%. In addition, the AC50 under setting [2] is 14.6 µM [rising, partial curve, poor fit]. `COc1cccc(-c2ccc3nnc(SCC(=O)N4CCOCC4)n3n2)c1`: the cell number change is -75%. Further, the AC50 under setting [1] is 4.61 µM [falling, full curve]. Regarding `CS(=O)(=O)N(CC(=O)N1CCC(C(N)=O)CC1)C1CCCCC1`, the cell number change was 2.48%. For the same compound, the concentration at half-maximal activity (AC50) under setting [2] is 0.00651 µM [falling, full curve, poor fit]. With `O=C1c2ccccc2C(=O)N1c1nc2nccc(-c3ccccc3)n2n1`, the cell number change amounted to 2.34%. Also, the AC50 under setting [2] is 0.103 µM [falling, full curve, poor fit].

For the compound `COC(=O)c1ccc2c(=O)n(CCCCCC(=O)NCCNC(C)=O)c(=O)[nH]c2c1`, the cell number change was -48.6%. Regarding `CCOC(=O)c1nnn(-c2nonc2-n2cccc2)c1CN1CCC(C)CC1`, the cell number change was -10.8%.

Consider `Cc1ccc(C(=O)NCCCNC(=O)c2ccc(C)nc2)cc1`, for which the cell number change is 10.1%. Moreover, the AC50 under setting [2] is 0.206 µM [falling, single point]. Turning to `COC(=O)C1CCN(C(=O)c2oc3c(Cl)cc(C)cc3c2C)CC1`, the cell number change was 6.11%. Besides, the AC50 under setting [1] was 2.91 µM [rising, single point]. Consider `Cc1onc(-c2ccccc2Cl)c1C(=O)N1CCN(c2ccc(F)cc2)CC1`, for which the cell number change turned out to be 27.1%. Consider `O=C(Nc1nc(-c2ccc3c(c2)OCO3)cs1)c1ccncc1`, for which the cell number change is -33.7%. Further, the AC50 under setting [1] was 11.6 µM [falling, partial curve, poor fit]. In addition, the AC50 under setting [2] is 16.4 µM [falling, single point]. As to `CNC(=O)COc1coc(CN2CCN(c3ccccc3F)CC2)cc1=O`, the cell number change is -0.567%. Further, the AC50 under setting [2] was 16.4 µM [rising, single point]. Consider `N/C(=N\OC(=O)Cc1ccccc1[N+](=O)[O-])c1ccncc1`, for which the cell number change stood at 23.9%. Moreover, under setting [2], the AC50 is 18.4 µM [rising, single point]. With `C1=C(c2ccccc2)CCN(c2nc3ccccc3n3cnnc23)C1`, the AC50 runs as follows: under setting [1], 1.46 µM [rising, partial curve]; under setting [2], 1.46 µM [rising, full curve].

For `CC(Oc1ccc2ccc(=O)oc2c1)C(=O)NC1CCN(Cc2ccccc2)CC1` (stereo not drawn), the cell number change was -23.9%. In addition, the AC50 under setting [2] is 0.82 µM [falling, full curve].

`CC1CC(C)CN(CC(O)COCc2ccccc2F)C1` (stereo not drawn): the cell number change amounted to 11.7%. With `Cc1cc(S(=O)(=O)Nc2ccc3ccccc3c2)c(C)s1`, the cell number change was -89%. Also, the AC50 under setting [1] is 18.4 µM [falling, single point]. The half-maximal activity concentration (AC50) under setting [2] is 23.1 µM [falling, single point]. In the case of `C/C(CC(=O)NCC(C)C)=N\NC(=O)COc1cc(C)c(Br)cc1Br`, the cell number change was determined as 1.95%. For the same compound, the AC50 under setting [2] was 0.58 µM [rising, partial curve, poor fit]. As for `COC(=O)c1sc2nc(-c3ccccc3)nc(N3CCN(C)CC3)c2c1C`, the cell number change is -9.51%. For the same compound, under setting [2], the AC50 was 16.4 µM [falling, single point]. In the case of `O=C(O)CCSc1nc(C(F)(F)F)cc(=O)n1-c1ccccc1`, the cell number change is -27.7%. The AC50 under setting [1] is 3.26 µM [falling, full curve, poor fit]. For the same compound, under setting [2], the concentration at half-maximal activity (AC50) is 2.31 µM [falling, full curve]. `CSc1ccc(NC(=O)Nc2cccn(Cc3ccccc3F)c2=O)cc1`: the cell number change was determined as 20%. Moreover, under setting [2], the concentration at half-maximal activity (AC50) is 29.1 µM [rising, single point].

For `COc1ccc(C2(CCN=Cc3ccc(N(C)C)cc3)CCOC(C)(C)C2)cc1` (stereo not drawn), the cell number change came to 15.1%. As for `O=C(COC(=O)C1=COCCO1)Nc1c(F)cccc1F`, the cell number change was -15.5%.

In the case of `COc1cccc(N(CC(=O)NCCSc2ccccc2)S(C)(=O)=O)c1`, the cell number change is -19.2%. Further, the AC50 under setting [1] is 0.092 µM [falling, full curve]. Further, under setting [2], the AC50 is 23.1 µM [falling, single point]. As for `N#C/C(=N\O)c1nc2ccccc2s1`, the cell number change amounted to 13.8%. Take `COCCn1c(N)c(N(Cc2ccccc2)C(=O)COc2ccccc2F)c(=O)[nH]c1=O`: the cell number change is -1.38%. Also, the AC50 under setting [1] is 0.731 µM [falling, full curve, poor fit]. Further, the AC50 under setting [2] is 0.651 µM [rising, full curve, poor fit].

The record behind these values is PubChem BioAssay AID2685 (National Center for Advancing Translational Sciences (NCATS), 2010).
